Laboratory results taken from publication PMC3299683.

Molecular target: HA-TβRIII (type III TGF-β receptor)
Assay: co-IP; HA-TβRIII-stably expressing 4T07 mouse mammary cancer cells treated with TGF-β and LPS for one hour; IP anti-HA, endogenous TRAF6 detected

binding: binds
B1: endogenous TRAF6 (4T07 mouse mammary tumor cells) (protein, UniProt P70196 1-530)
chain: MSLLNCENSCGSSQSSSDCCAAMAASCSAAVKDDSVSGSASTGNLSSSFMEEIQGYDVEFDPPLESKYECPICLMALREAVQTPCGHRFCKACIIKSIRDAGHKCPVDNEILLENQLFPDNFAKREILSLTVKCPNKGCLQKMELRHLEDHQVHCEFALVNCPQCQRPFQKCQVNTHIIEDCPRRQVSCVNCAVSMAYEEKEIHDQSCPLANIICEYCGTILIREQMPNHYDLDCPTAPIPCTFSVFGCHEKMQRNHLARHLQENTQLHMRLLAQAVHNVNLALRPCDAASPSRGCRPEDPNYEETIKQLESRLVRQDHQIRELTAKMETQSMYVGELKRTIRTLEDKVAEMEAQQCNGIYIWKIGNFGMHLKSQEEERPVVIHSPGFYTGRPGYKLCMRLHLQLPTAQRCANYISLFVHTMQGEYDSHLPWPFQGTIRLTILDQSEALIRQNHEEVMDAKPELLAFQRPTIPRNPKGFGYVTFMHLEALRQGTFIKDDTLLVRCEVSTRFDMGGLRKEGFQPRSTDAGV

These are yes or no findings as the source states them, for the method shown. In cells and extracts the contact can be indirect. Binding calls can cover weak binding; strength is not graded here.
